Experimental data reported in publication PMC10035768.
Results are given in words; binding and its absence hold for the method and conditions named. In cells and extracts the contact can be indirect. Some results given as binding are weak or reduced against the parent protein; the word gives no strength.

By UniProt entry, the sequences of proteins in these tests, tags left out. Where a name states a change or a piece, a line headed by the entry shows the natural chain unless it says otherwise. Chains listed by the source or under a name are the forms on record and can include a tag or linker.
UniProt P31946: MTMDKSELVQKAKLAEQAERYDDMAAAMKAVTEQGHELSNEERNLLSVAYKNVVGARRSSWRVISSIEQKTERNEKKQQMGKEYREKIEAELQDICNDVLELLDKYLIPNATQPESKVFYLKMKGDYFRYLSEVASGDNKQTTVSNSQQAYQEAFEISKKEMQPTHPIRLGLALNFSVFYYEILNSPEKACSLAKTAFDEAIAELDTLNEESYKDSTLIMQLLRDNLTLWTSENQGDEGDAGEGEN
0N3R tau expressed in HEK 293T cells (P10636-2, form named): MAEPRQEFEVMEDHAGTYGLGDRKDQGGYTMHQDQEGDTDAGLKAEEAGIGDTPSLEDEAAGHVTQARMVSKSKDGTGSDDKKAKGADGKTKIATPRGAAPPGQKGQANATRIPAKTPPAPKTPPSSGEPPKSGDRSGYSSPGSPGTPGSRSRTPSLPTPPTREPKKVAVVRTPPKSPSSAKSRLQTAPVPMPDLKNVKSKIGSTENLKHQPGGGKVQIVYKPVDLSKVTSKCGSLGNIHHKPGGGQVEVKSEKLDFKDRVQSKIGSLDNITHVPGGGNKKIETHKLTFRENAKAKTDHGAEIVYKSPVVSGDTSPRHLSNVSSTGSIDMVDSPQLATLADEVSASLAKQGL
0N4R tau expressed in HEK 293T cells (P10636-6, form named): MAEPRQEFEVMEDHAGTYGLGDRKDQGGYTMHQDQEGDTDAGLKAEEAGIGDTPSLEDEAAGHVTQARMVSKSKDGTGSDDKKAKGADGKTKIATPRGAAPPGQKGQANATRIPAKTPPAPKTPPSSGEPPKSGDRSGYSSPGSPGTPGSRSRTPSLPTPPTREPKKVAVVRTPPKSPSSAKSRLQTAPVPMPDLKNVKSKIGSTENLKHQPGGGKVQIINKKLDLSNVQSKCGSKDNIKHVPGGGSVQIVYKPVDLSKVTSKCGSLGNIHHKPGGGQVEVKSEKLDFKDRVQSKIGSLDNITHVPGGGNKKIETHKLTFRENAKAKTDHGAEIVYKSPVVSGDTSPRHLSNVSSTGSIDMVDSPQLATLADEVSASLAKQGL

Molecular target: FLAG HA 14-3-3 β expressed in HEK 293T cells (UniProt P31946)
Experiment: co-IP; HEK 293T cells co-transfected with 3R or 4R tau and FLAG-14-3-3-β; 500 μg lysate, anti-FLAG M2 on protein A/G magnetic beads; Western blot with HT7 (tau) and anti-14-3-3 β

binding	Substance
no binding	0N3R tau expressed in HEK 293T cells (from UniProt P10636-2 1-352)
binds	0N4R tau expressed in HEK 293T cells (from UniProt P10636-6 1-383)
